These results are taken from patent publication US20140113288A1 (ACADEMIA SINICA, published 2014).

This assay addresses T1, HtrA4mt-FLAG (human, UniProt P83105 32-476, limits assumed).
T1 construct: Used instead of wild-type HtrA4-FLAG in pull-downs to prevent cleavage of the GST fusion proteins; also called protease-dead HtrA4 mutant; not shown: C-terminal FLAG tag
T1 sequence (looked up): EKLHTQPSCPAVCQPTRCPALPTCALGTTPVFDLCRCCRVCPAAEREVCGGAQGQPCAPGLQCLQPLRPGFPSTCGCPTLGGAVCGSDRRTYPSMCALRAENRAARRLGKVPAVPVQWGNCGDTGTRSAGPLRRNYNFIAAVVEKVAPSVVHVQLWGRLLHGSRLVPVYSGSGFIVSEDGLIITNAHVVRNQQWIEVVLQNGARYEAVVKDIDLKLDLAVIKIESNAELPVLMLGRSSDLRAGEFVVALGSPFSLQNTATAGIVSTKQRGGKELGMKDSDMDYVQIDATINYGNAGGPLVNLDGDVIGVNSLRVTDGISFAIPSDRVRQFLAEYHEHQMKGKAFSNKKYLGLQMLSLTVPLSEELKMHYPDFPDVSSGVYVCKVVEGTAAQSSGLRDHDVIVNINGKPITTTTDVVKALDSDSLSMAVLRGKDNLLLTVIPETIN
In words: GST pull-down, immunoblot with FLAG mAb. As for the experimental part:
The GST fusion proteins GST-SU and GST-TM, which contain the SU and the TM subunits of syncytin-1, respectively, were prepared in E. coli using the pGEX6P-1 vector (GE Healthcare, Piscataway, N.J.). Recombinant HtrA4-FLAG and HtrA4mt-FLAG proteins were prepared in a vaccinia virus expression system. […] Cleavage of ECM protein by HtrA4 was performed by incubation of fibronectin (Calbiochem, La Jolla, Calif.) and HtrA4-FLAG or HtrA4mt-FLAG at 37° C. for 16 h, followed by immunoblotting with fibronectin Ab (Sigma). Pull-down experiments were performed by incubation of GST-SU- or GST-TM-preloaded glutathione agarose beads with HtrA4mt-FLAG to identify the interaction domain in syncytin-1 for HtrA4. Likewise, GST-SU-preloaded glutathione agarose beads were incubated with HtrA4mt-FLAG or HtrA4mt[…]PDZ-FLAG to identify the interaction domain in HtrA4 for syncytin-1. HtrA4mt-FLAG, instead of wild-type HtrA4-FLAG, was used in the pull-down experiments to prevent cleavage of the GST fusion proteins.

B1: GST-TM (other, human, UniProt Q9UQF0 318-538, looked up)
chain: VPILPFVIGAGVLGALGTGIGGITTSTQFYYKLSQELNGDMERVADSLVTLQDQLNSLAAVVLQNRRALDLLTAERGGTCLFLGEECCYYVNQSGIVTEKVKEIRDRIQRRAEELRNTGPWGLLSQWMPWILPFLGPLAAIILLLLFGPCIFNLLVNFVSSRIEAVKLQMEPKMQSKTKIYRRPLDRPASPRSDVNDIKGTPPEEISAAQPLLRPNSAGSS
notes: domain: TM subunit; Made in E. coli, loaded on glutathione agarose beads as bait; also called GST fusion protein harboring the TM subunit of syncytin-1; not shown: glutathione S-transferase (GST) of the pGEX6P-1 vector; linker not described
As to B1, the binding result was “no binding”.
